Source: PMC7819943, “Rice protein-binding microarrays: a tool to detect cis-acting elements near promoter regions in rice”
Some of the results follow.

Sequences of proteins named here, by UniProt entry; tags and fusion partners are left off.
UniProt Q0JBA9, entry or part of it: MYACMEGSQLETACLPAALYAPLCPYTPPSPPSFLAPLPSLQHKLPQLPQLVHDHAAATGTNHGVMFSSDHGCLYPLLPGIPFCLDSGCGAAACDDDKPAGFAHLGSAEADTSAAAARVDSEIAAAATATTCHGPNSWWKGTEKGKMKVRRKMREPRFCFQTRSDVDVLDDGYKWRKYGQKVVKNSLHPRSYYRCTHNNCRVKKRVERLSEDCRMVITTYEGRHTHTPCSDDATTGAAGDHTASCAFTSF

molecular target: OsWRKY34 (Oryza sativa, UniProt Q0JBA9 1-250); assay: protein-binding microarray (RPBM); PBS, 2% BSA, 51.3 ng/ul salmon testes DNA, 50 uM zinc acetate, 200 nM TF, 25 C, 1 h; high values mean tight binding; conditions: protein: recombinant; tags: N-terminal polyhistidine and DsRed monomer fusion (pET32a); label: CyDye5-dUTP incorporated in the synthesized complementary strand; 3' TTTTT single-stranded linker to array surface; dsDNA, one strand shown
Outline: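 Transcription factors, each fused N-terminally to a polyhistidine tag and DsRed, were expressed in E. coli BL21-CodonPlus and purified on Ni–NTA. A custom Agilent array was made double-stranded by primer extension with Cy5-dUTP and blocked with 2% BSA. It was incubated with 200 nM protein in PBS, 2% BSA, salmon testes DNA and 50 µM zinc acetate at 25 °C for 1 h, then washed. The binding signal is per-feature fluorescence intensity (arbitrary units) read on an Axon 4000B scanner.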

Sequence | binding signal
CGGGCGGCGATCTCCATCGCAGCGGAGGGGAGGGGATCCTCGGAGTCACCTAGTGCAG | 8820 fluorescence intensity (a.u.)
TCCATCCATCTTGCTTGCCACACACCCAACACTCCACACACGGAGTCACCTAGTGCAG | 9370 fluorescence intensity (a.u.)
TATATCTATATGCCATATCATCTGTCTATCCTTTGTAAAGCGGAGTCACCTAGTGCAG | 8740 fluorescence intensity (a.u.)
GATGTGGGAAGATTTAGGTGTATTTCTATTTCAGGGGTCTCGGAGTCACCTAGTGCAG | 10400 fluorescence intensity (a.u.)
ATATTTCAGACTTTCAGTAGCTTGCAATGTATGCTCACATCGGAGTCACCTAGTGCAG | 8070 fluorescence intensity (a.u.)
TGTTAATACTTTTGTCCTGTCGCTAATCTGATGGGTAACCCGGAGTCACCTAGTGCAG | 8310 fluorescence intensity (a.u.)
CGCCTCGCGGCAGGCAGCCGAGCTGTCTCCAACCGTGCCGCGGAGTCACCTAGTGCAG | 37300 fluorescence intensity (a.u.)
CCCCTCCTCCGGCTCTCCCGATTGGTCCACGCGCTCACACCGGAGTCACCTAGTGCAG | 9890 fluorescence intensity (a.u.)
ATGTTTGACACCGTTGACTTTTTAGTACGTGTTTGACCATCGGAGTCACCTAGTGCAG | 28200 fluorescence intensity (a.u.)
CTCTGCACGTTTCTTTCCCCTAACAAATACATGTACACACCGGAGTCACCTAGTGCAG | 9590 fluorescence intensity (a.u.)
ATCGCCACGTCCACGCCTCGCTCGCGTTTTATCCGTTTCGCGGAGTCACCTAGTGCAG | 11600 fluorescence intensity (a.u.)
CATATGCTCCACACTTTTCTGCTTCACCATGGCATGTTTTCGGAGTCACCTAGTGCAG | 15100 fluorescence intensity (a.u.)
CCGGTCGCTTTCTTCGTCACGTTACCGCGGGAATCATCGTCGGAGTCACCTAGTGCAG | 12400 fluorescence intensity (a.u.)
CGCCACCGCTGCCTGCTCCGATCCCCATTCATCGCGCGAGCGGAGTCACCTAGTGCAG | 8230 fluorescence intensity (a.u.)
GGTGTGTTCTTGGCTCCGATTCGGCCGCGGCTCCCGGTGACGGAGTCACCTAGTGCAG | 9360 fluorescence intensity (a.u.)
GCACGAGGCACATCCACACCGTCCGTCCCATCCGTACGTACGGAGTCACCTAGTGCAG | 10100 fluorescence intensity (a.u.)
GTTCAGAATCTCCCGGACGGAGCACGAACATGTGTGTTGTCGGAGTCACCTAGTGCAG | 8350 fluorescence intensity (a.u.)
AATGGGGCTCTGCATGGGCGGGCACTCCGCTGCCACGGCGCGGAGTCACCTAGTGCAG | 10100 fluorescence intensity (a.u.)
ACACCGTTCAGTTCATCCTCACCTCTTGTTCTCCACAATTCGGAGTCACCTAGTGCAG | 10300 fluorescence intensity (a.u.)
CCCAGCTTCTCCAGCTTCTGGCTTCTTAGTTCATTTTTCACGGAGTCACCTAGTGCAG | 8940 fluorescence intensity (a.u.)
CTTATTCTCATGTGGTGTGATGTGTAATTCACATGGTTGACGGAGTCACCTAGTGCAG | 9280 fluorescence intensity (a.u.)
CACAGATCACCAAGCCACAATCGCCCACACACAAATACTCCGGAGTCACCTAGTGCAG | 10300 fluorescence intensity (a.u.)
TTTTTACACGCGTTTTTTTTACATTGTCGTTTTTTTTTTGCGGAGTCACCTAGTGCAG | 13500 fluorescence intensity (a.u.)

6 entries from above, as comma-separated lines:
Sequence,binding signal
CCCCTCCTCCGGCTCTCCCGATTGGTCCACGCGCTCACACCGGAGTCACCTAGTGCAG,9890 fluorescence intensity (a.u.)
ATGTTTGACACCGTTGACTTTTTAGTACGTGTTTGACCATCGGAGTCACCTAGTGCAG,28200 fluorescence intensity (a.u.)
CTCTGCACGTTTCTTTCCCCTAACAAATACATGTACACACCGGAGTCACCTAGTGCAG,9590 fluorescence intensity (a.u.)
ATCGCCACGTCCACGCCTCGCTCGCGTTTTATCCGTTTCGCGGAGTCACCTAGTGCAG,11600 fluorescence intensity (a.u.)
CATATGCTCCACACTTTTCTGCTTCACCATGGCATGTTTTCGGAGTCACCTAGTGCAG,15100 fluorescence intensity (a.u.)
CCGGTCGCTTTCTTCGTCACGTTACCGCGGGAATCATCGTCGGAGTCACCTAGTGCAG,12400 fluorescence intensity (a.u.)
